Source: paper PMC4695042

By UniProt entry, the sequences of proteins in these tests, tags left out. Where a name states a change or a piece, a line headed by the entry shows the natural chain unless it says otherwise.
UniProt Q7L5N1: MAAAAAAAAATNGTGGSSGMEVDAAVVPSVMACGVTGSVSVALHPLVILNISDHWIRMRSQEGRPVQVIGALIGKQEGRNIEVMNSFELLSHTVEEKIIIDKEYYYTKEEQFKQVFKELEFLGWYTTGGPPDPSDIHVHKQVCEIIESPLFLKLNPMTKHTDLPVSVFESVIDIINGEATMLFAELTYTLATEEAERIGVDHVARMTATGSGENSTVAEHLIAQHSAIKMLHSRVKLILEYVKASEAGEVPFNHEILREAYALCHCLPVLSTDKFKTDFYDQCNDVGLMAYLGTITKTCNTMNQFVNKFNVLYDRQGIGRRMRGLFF
UniProt Q05086: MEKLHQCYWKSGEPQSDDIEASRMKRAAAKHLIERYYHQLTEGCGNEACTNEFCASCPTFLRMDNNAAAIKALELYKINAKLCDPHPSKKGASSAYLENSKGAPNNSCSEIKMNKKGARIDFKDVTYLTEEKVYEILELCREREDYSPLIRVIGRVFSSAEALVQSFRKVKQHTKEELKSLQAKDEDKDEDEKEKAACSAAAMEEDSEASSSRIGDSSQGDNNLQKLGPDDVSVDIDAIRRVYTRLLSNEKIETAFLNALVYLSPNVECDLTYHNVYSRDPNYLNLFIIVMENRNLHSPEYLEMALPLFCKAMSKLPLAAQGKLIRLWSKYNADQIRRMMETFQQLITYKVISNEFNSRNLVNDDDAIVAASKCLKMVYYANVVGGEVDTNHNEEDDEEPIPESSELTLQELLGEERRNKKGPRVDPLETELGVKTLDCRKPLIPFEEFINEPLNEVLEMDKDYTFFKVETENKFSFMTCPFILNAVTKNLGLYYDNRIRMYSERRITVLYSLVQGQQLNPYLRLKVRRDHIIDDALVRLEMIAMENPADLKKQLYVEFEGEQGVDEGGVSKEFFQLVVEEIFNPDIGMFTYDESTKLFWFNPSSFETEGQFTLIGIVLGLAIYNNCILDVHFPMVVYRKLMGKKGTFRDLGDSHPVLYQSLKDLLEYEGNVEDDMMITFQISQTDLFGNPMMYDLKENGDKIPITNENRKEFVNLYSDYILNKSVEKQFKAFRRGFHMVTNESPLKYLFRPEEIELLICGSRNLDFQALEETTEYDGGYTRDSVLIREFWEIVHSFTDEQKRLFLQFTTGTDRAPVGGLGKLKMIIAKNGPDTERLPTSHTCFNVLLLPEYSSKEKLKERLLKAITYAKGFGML

Key:
[1] = molecular target: Flag-CSN6 N-terminus (aa 1-184) (UniProt Q7L5N1); test: co-IP; Flag-CSN6 (aa 1-327), N-terminus or C-terminus transfected into HeLa cells; lysates immunoprecipitated with anti-Flag, immunoblotted with anti-E6AP (endogenous E6AP)
[2] = molecular target: Flag-CSN6 C-terminus (aa 185-327) (UniProt Q7L5N1); test: as above

- binding [1]: binds
- binding [2]: no binding
Substance: E6-associated protein (E6AP/UBE3A), endogenous (from UniProt Q05086 1-875)

Results are given in words; binding and its absence hold for the method and conditions named. Binding seen in cells or lysates may run through a third protein. For some assays here: Binding calls can cover weak binding; strength is not graded here.
